The other results are listed elsewhere or left out. Further columns of the screen follow, without active or inactive calls. Compounds called inactive in the main read-out are mostly missing here. The note in brackets gives the kind of curve behind each potency; many fits are weak.

The experiment in a line: qHTS Assay for Lipid Storage Modulators in Drosophila S3 Cells.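 On cell number change: cells counted by Cell Tracker Red CMTPX staining in the red channel.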 Particulars: BODIPY lipid droplet fluorescence, 18-24 h; for cell number change: measured here: cell count max response, cells fed with added oleic acid. In outline: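 Drosophila S3 cells loaded with oleic acid (400 uM, as added) and compounds at several concentrations; lipid droplets imaged by 488-nm laser-scanning cytometry, 500–530 nm intensity and object ratio to cell channel. Percent activity normalized to 20 uM Triacsin C.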
A general note: Quantitative high-throughput screening tests each substance at several concentrations.

The mark [1] stands for this setting: measured here: lipid fluorescence (Fed channel) AC50, cells fed with added oleic acid.
The mark [2] stands for this setting: measured here: cell number channel AC50, cells fed with added oleic acid.

With `CCOc1cc(/C=N/O)ccc1OCc1ccc(C)cc1`, the cell number change is -19.7%. Further, under setting [1], the AC50 is 32.6 µM [falling, single point].

On to `CC(C)CN(C(=O)CC(C)c1ccccc1)c1c(N)n(Cc2ccccc2)c(=O)[nH]c1=O` (stereo unspecified), for which the cell number change was -11.2%. The AC50 under setting [1] was 29.1 µM [rising, single point].

With `COc1ccc(S(=O)(=O)N2CCCC2C(=O)Nc2nccs2)cc1` (stereo unspecified), the cell number change was determined as 6.82%. In addition, under setting [2], the AC50 is 0.411 µM [falling, single point].

With `Cc1cc(NC(=O)CCCSc2nc(-c3ccco3)cc(C(F)(F)F)n2)no1`, the cell number change came out at 1.49%. The half-maximal activity concentration (AC50) under setting [1] was 1.16 µM [falling, single point].

With `CC(C)CCNC(=O)C(c1ccco1)N(CCCO)C(=O)Cn1nnc(-c2ccc(F)cc2)n1` (stereo unspecified), the cell number change was found to be 7.72%. For the same molecule, under setting [1], the AC50 was 5.8 µM [rising, partial curve].

In the case of `O=C(CCSc1ccccc1)OCn1nnc2ccccc2c1=O`, the cell number change is -6.27%.

With `CCOC(=O)c1c(N)sc2c(OCC)c(Br)ccc12`, the cell number change was -53.3%. For the same molecule, the concentration at half-maximal activity (AC50) under setting [2] is 23.1 µM [falling, single point]. Also, the AC50 under setting [1] is 29.1 µM [falling, single point].

With `O=C(N/N=C/c1ccc(N2CCCC2)c([N+](=O)[O-])c1)c1cccnc1`, the cell number change was 20.1%. Also, the half-maximal activity concentration (AC50) under setting [1] is 5.62 µM [rising, partial curve, poor fit].

Take `CC(=O)N1c2ccc(S(=O)(=O)N3CCCC(C(=O)Nc4cc(C)cc(C)c4)C3)cc2CC1C` (stereo unspecified): the cell number change came out at 8.98%. Moreover, under setting [1], the AC50 is 0.731 µM [falling, single point].

As for `Cc1cccc(N2CC(C(=O)Nc3ccc(S(=O)(=O)NCC4CCCO4)cc3)CC2=O)c1C` (stereo unspecified), the cell number change was found to be 13.7%. For the same molecule, the half-maximal activity concentration (AC50) under setting [1] was 0.82 µM [rising, full curve].

In the case of `O=C(CCN1C(=O)/C(=C\c2ccc(F)cc2)SC1=S)Nc1ccc(O)cc1`, the cell number change is -0.538%. In addition, the concentration at half-maximal activity (AC50) under setting [1] was 6.51 µM [rising, single point].

Turning to `CN(CC(=O)Nc1cccc(S(=O)(=O)N2CCCCC2)c1)Cc1ccc(F)cc1`, the cell number change was -11.7%. Under setting [1], the AC50 is 3.66 µM [falling, single point].

Regarding `COc1ccccc1N1CCN(C(=O)CSc2nc(C)cc(=O)[nH]2)CC1`, the cell number change came to 28.2%. Besides, the AC50 under setting [1] was 6.51 µM [falling, single point].

Turning to `Brc1ccc(-c2csc(NNC3=NCCCCC3)n2)cc1`, the AC50 under setting [1] was 25.9 µM [falling, partial curve, poor fit].

For `Cc1ccccc1NC(=O)Cc1nc(COC(=O)c2cc([N+](=O)[O-])ccc2NCCO)cs1`, the cell number change turned out to be 55.8%. Further, under setting [2], the half-maximal activity concentration (AC50) was 5.8 µM [rising, partial curve, poor fit]. Also, the AC50 under setting [1] was 2.31 µM [rising, partial curve, poor fit].

`CCN1CCN(C(=O)c2cc(S(=O)(=O)N3CCCCC3)ccc2Cl)CC1`: the cell number change came out at 16.5%.

What is called AC50 is the midpoint of the concentration-response curve, whichever way the signal moves. Low values mean activity at low concentration, high ones activity only at high concentration.

Source of the values: PubChem BioAssay AID2685 (National Center for Advancing Translational Sciences (NCATS), 2010).
